Results reported in article PMC4632068.
These are yes or no findings as the source states them, for the method shown. Binding seen in cells or lysates may run through a third protein. These calls come from enrichment with a bait or labelling near it, and not all partners need be listed. Tags and fused reporters may be left off the sequences shown.

T1: Dhh1−GFP (S. cerevisiae (endogenous in BY4741-derived yeast)) (UniProt P39517)
T1 sequence: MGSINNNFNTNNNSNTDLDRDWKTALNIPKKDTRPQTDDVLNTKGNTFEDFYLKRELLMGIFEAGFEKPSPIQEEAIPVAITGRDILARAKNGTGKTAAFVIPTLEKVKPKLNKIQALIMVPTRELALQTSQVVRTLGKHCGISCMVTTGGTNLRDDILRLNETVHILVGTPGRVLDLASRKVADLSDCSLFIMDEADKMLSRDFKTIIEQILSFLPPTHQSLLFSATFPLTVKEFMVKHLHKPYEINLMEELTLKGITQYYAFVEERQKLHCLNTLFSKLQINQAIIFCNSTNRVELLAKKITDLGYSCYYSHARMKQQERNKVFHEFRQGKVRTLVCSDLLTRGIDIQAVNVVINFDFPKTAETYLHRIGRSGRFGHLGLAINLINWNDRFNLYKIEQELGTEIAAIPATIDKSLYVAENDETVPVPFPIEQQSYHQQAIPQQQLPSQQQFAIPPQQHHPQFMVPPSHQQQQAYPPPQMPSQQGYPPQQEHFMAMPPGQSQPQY


Biological target: T1, Dhh1−GFP (S. cerevisiae (endogenous in BY4741-derived yeast))
Test: affinity purification with mass spectrometry; Dhh1−GFP captured by anti-GFP IgG cross-linked to Protein-G Dynabeads from cleared lysate of cryo-ground yeast; RB buffer (30 mM K-Hepes pH 7.4, 150 mM KCl, 2 mM MgCl2, 0.2% NP-40, 0.1% Tween-20, 1 mM DTT, RNase inhibitor), 30 min at 4°; five purifications (two +glucose YPD, three 30 min −glucose YEP); hits filtered by SAINT against CRAPome controls

| binding | Binder |
| --- | --- |
| binds | Sis1 (protein, UniProt P25294 1-352) MVKETKLYDLLGVSPSANEQELKKGYRKAALKYHPDKPTGDTEKFKEISEAFEILNDPQKREIYDQYGLEAARSGGPSFGPGGPGGAGGAGGFPGGAGGFSGGHAFSNEDAFNIFSQFFGGSSPFGGADDSGFSFSSYPSGGGAGMGGMPGGMGGMHGGMGGMPGGFRSASSSPTYPEEETVQVNLPVSLEDLFVGKKKSFKIGRKGPHGASEKTQIDIQLKPGWKAGTKITYKNQGDYNPQTGRRKTLQFVIQEKSHPNFKRDGDDLIYTLPLSFKESLLGFSKTIQTIDGRTLPLSRVQPVQPSQTSTYPGQGMPTPKNPSQRGNLIVKYKVDYPISLNDAQKRAIDENF |
| binds | Tef4 (protein, UniProt P36008 1-412) MSQGTLYINRSPRNYASEALISYFKLDVKIVDLEQSSEFASLFPLKQAPAFLGPKGLKLTEALAIQFYLANQVADEKERARLLGSDVIEKSQILRWASLANSDVMSNIARPFLSFKGLIPYNKKDVDACFVKIDNLAAVFDARLRDYTFVATENISLGDLHAAGSWAFGLATILGPEWRAKHPHLMRWFNTVAASPIVKTPFAEVKLAEKALTYTPPKKQKAEKPKAEKSKAEKKKDEAKPADDAAPAKKPKHPLEALGKSTFVLDDWKRKYSNDDTRPVALPWFWEHYNPEEYSIWKVGYKYNDELTLTFMSNNLVGGFFNRLSASTKYMFGCLVVYGENNNNGIVGAVMVRGQDFAPAFDVAPDWESYEYTKLDPTKEEDKEFVNNMWAWDKPVVVNGEDKEIVDGKVLK |
| binds | Yef3 (protein, UniProt P16521 1-1044) MSDSQQSIKVLEELFQKLSVATADNRHEIASEVASFLNGNIIEHDVPEHFFGELAKGIKDKKTAANAMQAVAHIANQSNLSPSVEPYIVQLVPAICTNAGNKDKEIQSVASETLISIVNAVNPVAIKALLPHLTNAIVETNKWQEKIAILAAISAMVDAAKDQVALRMPELIPVLSETMWDTKKEVKAAATAAMTKATETVDNKDIERFIPSLIQCIADPTEVPETVHLLGATTFVAEVTPATLSIMVPLLSRGLNERETGIKRKSAVIIDNMCKLVEDPQVIAPFLGKLLPGLKSNFATIADPEAREVTLRALKTLRRVGNVGEDDAIPEVSHAGDVSTTLQVVNELLKDETVAPRFKIVVEYIAAIGADLIDERIIDQQAWFTHITPYMTIFLHEKKAKDILDEFRKRAVDNIPVGPNFDDEEDEGEDLCNCEFSLAYGAKILLNKTQLRLKRARRYGICGPNGCGKSTLMRAIANGQVDGFPTQEECRTVYVEHDIDGTHSDTSVLDFVFESGVGTKEAIKDKLIEFGFTDEMIAMPISALSGGWKMKLALARAVLRNADILLLDEPTNHLDTVNVAWLVNYLNTCGITSITISHDSVFLDNVCEYIINYEGLKLRKYKGNFTEFVKKCPAAKAYEELSNTDLEFKFPEPGYLEGVKTKQKAIVKVTNMEFQYPGTSKPQITDINFQCSLSSRIAVIGPNGAGKSTLINVLTGELLPTSGEVYTHENCRIAYIKQHAFAHIESHLDKTPSEYIQWRFQTGEDRETMDRANRQINENDAEAMNKIFKIEGTPRRIAGIHSRRKFKNTYEYECSFLLGENIGMKSERWVPMMSVDNAWIPRGELVESHSKMVAEVDMKEALASGQFRPLTRKEIEEHCSMLGLDPEIVSHSRIRGLSGGQKVKLVLAAGTWQRPHLIVLDEPTNYLDRDSLGALSKALKEFEGGVIIITHSAEFTKNLTEEVWAVKDGRMTPSGHNWVSGQGAGPRIEKKEDEEDKFDAMGNKIAGGKKKKKLSSAELRKKKKERMKKKKELGDAYVSSDEEF |
